Results deposited as PubChem BioAssay AID504774 (Drosophila RNAi Screening Center, 2011)

Test: 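Knock-downs that shift viability of MMS-exposed cells relative to untreated ones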 (primary screen)
System: Drosophila Kc167 cells
Reagent: long dsRNA against Drosophila genes, about 0.25 µg dsRNA per well
Timing: about 6 days: 3 days knock-down, then 3 days with or without MMS
Challenge: methyl methanesulphonate 0.004% (w/v) for 3 days after knock-down
Measurement: 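ATP-dependent luminescence as a measure of live cells in MMS-exposed wells, quantile normalised within each plate, with replicate values also given as a mean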
Scale: mean viability with MMS and viability with MMS: higher = more surviving cells after MMS
The screen tested about 23,000 reagents; this is an unselected part of those that have a named target and a result. 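Values are quantile-normalised luminescence on an arbitrary scale; higher means more cells surviving MMS.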 The numbers tell different reagents against one gene apart. Not all columns of the deposit are shown.

CG34406 (retired record) #1 gave mean viability with MMS 3.69e6; viability with MMS, replicate 1 = 3.95e6. CG34406 (retired record) #2 gave mean viability with MMS 3.84e6; viability with MMS, replicate 1 = 4.08e6. snz gave mean viability with MMS 3.49e6; viability with MMS, replicate 1 = 3.79e6. After knock-down of gpp #1 the results were mean viability with MMS 3.27e6; viability with MMS, replicate 1 = 3.76e6. After knock-down of gpp #2 the results were mean viability with MMS 3.29e6; viability with MMS, replicate 1 = 3.74e6. With knock-down of CG33178, the screen gave mean viability with MMS 3.52e6; viability with MMS, replicate 1 = 3.93e6.

After knock-down of ChLD3, the screen gave mean viability with MMS 3.42e6; viability with MMS, replicate 1 = 3.83e6. Knock-down of CG42591 came out at: mean viability with MMS 3.55e6; viability with MMS, replicate 1 = 4.07e6. CG13578 gave mean viability with MMS 3.44e6; viability with MMS, replicate 1 = 3.80e6. yellow-e2 showed mean viability with MMS 3.47e6; viability with MMS, replicate 1 = 3.94e6. Silencing of ND-49L resulted in: mean viability with MMS 3.33e6; viability with MMS, replicate 1 = 3.73e6. Against CG14851 #1, the values are mean viability with MMS 3.55e6; viability with MMS, replicate 1 = 3.87e6.

Silencing of CG14851 #2 gave: mean viability with MMS 3.73e6; viability with MMS, replicate 1 = 4.18e6. After knock-down of CG15366 (retired record) the results were mean viability with MMS 3.54e6; viability with MMS, replicate 1 = 3.76e6. CG12909 scored mean viability with MMS 3.51e6; viability with MMS, replicate 1 = 4.01e6. twe showed mean viability with MMS 3.51e6; viability with MMS, replicate 1 = 3.89e6.

Individual results from the entries so far:
CG13578, mean viability with MMS: 3.44e6
For “mean viability with MMS”, CG12909 is entered as 3.51e6
Under “viability with MMS, replicate 1”, CG14851 #1 has 3.87e6
CG34406 (retired record) #1, mean viability with MMS → 3.69e6

The listing continues.
Against tHMG2 the deposit lists mean viability with MMS 3.70e6; viability with MMS, replicate 1 = 4.40e6. CG10936 #1 showed mean viability with MMS 3.57e6; viability with MMS, replicate 1 = 4.03e6. With knock-down of CG10936 #2 the results were mean viability with MMS 3.67e6; viability with MMS, replicate 1 = 4.20e6. For CG10936 #3, the values are mean viability with MMS 3.49e6; viability with MMS, replicate 1 = 3.95e6. Against PMP34, the entry reads mean viability with MMS 3.56e6; viability with MMS, replicate 1 = 4.00e6. tw scored mean viability with MMS 3.41e6; viability with MMS, replicate 1 = 3.95e6.

Silencing of DnaJ-1 came out at: mean viability with MMS 3.42e6; viability with MMS, replicate 1 = 3.90e6. Alg13 showed mean viability with MMS 3.62e6; viability with MMS, replicate 1 = 4.10e6. With knock-down of Top2, the screen gave mean viability with MMS 3.40e6; viability with MMS, replicate 1 = 3.79e6. After knock-down of CG3918 #1, the record shows mean viability with MMS 2.91e6; viability with MMS, replicate 1 = 3.28e6. After knock-down of CG3918 #2, the record shows mean viability with MMS 3.69e6; viability with MMS, replicate 1 = 4.19e6. With knock-down of CG7798, the record shows mean viability with MMS 3.65e6; viability with MMS, replicate 1 = 4.10e6.

With knock-down of CtsK2 the results were mean viability with MMS 3.57e6; viability with MMS, replicate 1 = 4.07e6. Depletion of CG14740 came out at: mean viability with MMS 3.60e6; viability with MMS, replicate 1 = 4.17e6. Silencing of CG31109 gave: mean viability with MMS 3.69e6; viability with MMS, replicate 1 = 4.21e6. With knock-down of CG15201, the screen gave mean viability with MMS 3.60e6; viability with MMS, replicate 1 = 4.08e6. Silencing of CenB1A resulted in: mean viability with MMS 3.54e6; viability with MMS, replicate 1 = 4.01e6. For Naprt, the entry reads mean viability with MMS 3.43e6; viability with MMS, replicate 1 = 3.82e6.

Against CG31365, the entry reads mean viability with MMS 3.56e6; viability with MMS, replicate 1 = 3.98e6.
